{
  "source": "the supplement of paper PMC8728848",
  "binders": {"B1": {"name": "B936 (Bifidobacterium sp) (protein)", "chain": "MKNWKKAIALVASAAALVSVAACGPSNAGGSSDSGKKTVGFVAVGPEGGFRTANEKDIQKAFEDAGFDLTYSPTQNNDQQKQIQAFNKFVNDEVDAIILSSTEDSGWDDSLKKAAEAEIPVFTVDRNVDVKDAEAKKAIVAHIGPSNVWCGEQAAEFVNKNFPDGANGFILEGPAGLSVVKDRGTGWGNKVASNVKVLESQSANWSTDEAKTVTAGLLDKYKSDNPQFIFAQNDEMGLGAAQAVDAAGLKGKVKIITIDGTKNALQALVDGDLSYVIEYNPIFGKETAQAVKDYLDGKTVEKDIEIESKTFDAASAKEALDNNTRAY"}},
  "experiment_in_all_cases": "glycan array binding signal (z-score within array); higher = stronger binding",
  "conditions_in_all_cases": "glycan notation: IUPAC condensed, linker removed",
  "key": {"[1]": {"target": "GalNAc(b1-4)GlcNAc(b1-2)Man", "outline": "(§1)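 The Consortium for Functional Glycomics database supplied 3228 glycan arrays, of which those lacking an available protein sequence were dropped. The binding signal, a within-array Z-score, was averaged across arrays of the same protein sequence and across linkers. Negative scores can be read as non-binding.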"}, "[2]": {"target": "GalNAc(b1-4)GlcNAc(b1-2)Man(a1-3)[GalNAc(b1-4)GlcNAc(b1-2)Man(a1-6)]Man(b1-4)GlcNAc(b1-4)GlcNAc", "outline": "as §1"}, "[3]": {"target": "GalNAc(b1-4)GlcNAc(b1-3)GalNAc(b1-4)GlcNAc", "outline": "as §1"}, "GalNAc(b1-4)GlcNAc6S": {"target": "GalNAc(b1-4)GlcNAc6S", "outline": "as §1"}, "GalNAc(b1-6)GalNAc": {"target": "GalNAc(b1-6)GalNAc", "outline": "as §1"}, "GalNAc3S(b1-4)GlcNAc": {"target": "GalNAc3S(b1-4)GlcNAc", "outline": "as §1"}, "GalNAc3S(b1-4)GlcNAc3S": {"target": "GalNAc3S(b1-4)GlcNAc3S", "outline": "as §1"}, "[4]": {"target": "GalNAc3S(b1-4)[Fuc(a1-3)]GlcNAc", "outline": "as §1"}, "GalNAc4S6S(b1-4)GlcNAc": {"target": "GalNAc4S6S(b1-4)GlcNAc", "outline": "as §1"}, "GalNAc6S(b1-4)GlcNAc": {"target": "GalNAc6S(b1-4)GlcNAc", "outline": "as §1"}, "Glc(a1-4)Glc": {"target": "Glc(a1-4)Glc", "outline": "as §1"}, "[5]": {"target": "Glc(a1-4)Glc(a1-4)Glc(a1-4)Glc", "outline": "as §1"}, "Glc(a1-6)Glc(a1-6)Glc": {"target": "Glc(a1-6)Glc(a1-6)Glc", "outline": "as §1"}, "[6]": {"target": "Glc(a1-6)Glc(a1-6)Glc(a1-6)Glc", "outline": "as §1"}, "Glc(b1-4)Glc": {"target": "Glc(b1-4)Glc", "outline": "as §1"}, "Glc(b1-6)Glc": {"target": "Glc(b1-6)Glc", "outline": "as §1"}, "GlcA(b1-3)Gal": {"target": "GlcA(b1-3)Gal", "outline": "as §1"}, "GlcA(b1-3)GlcNAc": {"target": "GlcA(b1-3)GlcNAc", "outline": "as §1"}, "GlcA(b1-6)Gal": {"target": "GlcA(b1-6)Gal", "outline": "as §1"}, "[7]": {"target": "GlcA3S(b1-3)Gal(b1-4)GlcNAc(b1-2)Man", "outline": "as §1"}, "[8]": {"target": "GlcA3S(b1-3)Gal(b1-4)GlcNAc(b1-3)Gal(b1-4)Glc", "outline": "as §1"}, "[9]": {"target": "GlcNAc(a1-3)Gal(b1-4)GlcNAc", "outline": "as §1"}, "[10]": {"target": "GlcNAc(a1-4)Gal(b1-3)GlcNAc", "outline": "as §1"}, "[11]": {"target": "GlcNAc(a1-4)Gal(b1-4)GalNAc", "outline": "as §1"}, "[12]": {"target": "GlcNAc(a1-4)Gal(b1-4)GlcNAc", "outline": "as §1"}, "[13]": {"target": "GlcNAc(a1-4)Gal(b1-4)GlcNAc(b1-3)Gal(b1-4)Glc", "outline": "as §1"}, "[14]": {"target": "GlcNAc(a1-4)Gal(b1-4)GlcNAc(b1-3)Gal(b1-4)GlcNAc", "outline": "as §1"}, "[15]": {"target": "GlcNAc(a1-4)Gal(b1-4)GlcNAc(b1-3)Gal(b1-4)GlcNAc(b1-3)Gal(b1-4)GlcNAc", "outline": "as §1"}, "[16]": {"target": "GlcNAc(a1-4)Gal(b1-4)GlcNAc(b1-3)Gal(b1-4)[Fuc(a1-3)]GlcNAc(b1-3)Gal(b1-4)[Fuc(a1-3)]GlcNAc", "outline": "as §1"}, "[17]": {"target": "GlcNAc(a1-6)Gal(b1-4)GlcNAc", "outline": "as §1"}, "[18]": {"target": "GlcNAc(b1-2)Gal(b1-3)GalNAc", "outline": "as §1"}, "[19]": {"target": "GlcNAc(b1-2)Man(a1-3)[GlcNAc(b1-2)Man(a1-6)]Man(b1-4)GlcNAc(b1-4)GlcNAc", "outline": "as §1"}, "[20]": {"target": "GlcNAc(b1-2)Man(a1-3)[GlcNAc(b1-2)Man(a1-6)]Man(b1-4)GlcNAc(b1-4)[Fuc(a1-6)]GlcNAc", "outline": "as §1"}, "[21]": {"target": "GlcNAc(b1-2)Man(a1-3)[GlcNAc(b1-4)][GlcNAc(b1-2)Man(a1-6)]Man(b1-4)GlcNAc(b1-4)GlcNAc", "outline": "as §1"}, "[22]": {"target": "GlcNAc(b1-2)Man(a1-3)[GlcNAc(b1-4)][GlcNAc(b1-2)Man(a1-6)]Man(b1-4)GlcNAc(b1-4)[Fuc(a1-6)]GlcNAc", "outline": "as §1"}, "[23]": {"target": "GlcNAc(b1-2)[GlcNAc(b1-4)]Man(a1-3)[GlcNAc(b1-2)Man(a1-6)]Man(b1-4)GlcNAc(b1-4)GlcNAc", "outline": "as §1"}, "[24]": {"target": "GlcNAc(b1-2)[GlcNAc(b1-4)]Man(a1-3)[GlcNAc(b1-4)][GlcNAc(b1-2)Man(a1-6)]Man(b1-4)GlcNAc(b1-4)GlcNAc", "outline": "as §1"}},
  "note": "The other results are listed elsewhere or left out.",
  "data": [
    {"binder": "B1", "values": [
      {"measurement": "glycan array binding signal (z-score)", "setting": "[1]", "value": -1.38},
      {"measurement": "glycan array binding signal (z-score)", "setting": "[2]", "value": 3.25},
      {"measurement": "glycan array binding signal (z-score)", "setting": "[3]", "value": 0.157},
      {"measurement": "glycan array binding signal (z-score)", "setting": "GalNAc(b1-4)GlcNAc6S", "value": -0.802},
      {"measurement": "glycan array binding signal (z-score)", "setting": "GalNAc(b1-6)GalNAc", "value": -0.914},
      {"measurement": "glycan array binding signal (z-score)", "setting": "GalNAc3S(b1-4)GlcNAc", "value": 0.447},
      {"measurement": "glycan array binding signal (z-score)", "setting": "GalNAc3S(b1-4)GlcNAc3S", "value": -0.472},
      {"measurement": "glycan array binding signal (z-score)", "setting": "[4]", "value": -0.041},
      {"measurement": "glycan array binding signal (z-score)", "setting": "GalNAc4S6S(b1-4)GlcNAc", "value": 0.039},
      {"measurement": "glycan array binding signal (z-score)", "setting": "GalNAc6S(b1-4)GlcNAc", "value": -0.783},
      {"measurement": "glycan array binding signal (z-score)", "setting": "Glc(a1-4)Glc", "value": -0.026},
      {"measurement": "glycan array binding signal (z-score)", "setting": "[5]", "value": -0.12},
      {"measurement": "glycan array binding signal (z-score)", "setting": "Glc(a1-6)Glc(a1-6)Glc", "value": 0.517},
      {"measurement": "glycan array binding signal (z-score)", "setting": "[6]", "value": 0.382},
      {"measurement": "glycan array binding signal (z-score)", "setting": "Glc(b1-4)Glc", "value": -0.472},
      {"measurement": "glycan array binding signal (z-score)", "setting": "Glc(b1-6)Glc", "value": 0.035},
      {"measurement": "glycan array binding signal (z-score)", "setting": "GlcA(b1-3)Gal", "value": -0.516},
      {"measurement": "glycan array binding signal (z-score)", "setting": "GlcA(b1-3)GlcNAc", "value": -0.008},
      {"measurement": "glycan array binding signal (z-score)", "setting": "GlcA(b1-6)Gal", "value": -0.035},
      {"measurement": "glycan array binding signal (z-score)", "setting": "[7]", "value": 0.095},
      {"measurement": "glycan array binding signal (z-score)", "setting": "[8]", "value": -0.991},
      {"measurement": "glycan array binding signal (z-score)", "setting": "[9]", "value": 0.799},
      {"measurement": "glycan array binding signal (z-score)", "setting": "[10]", "value": -0.409},
      {"measurement": "glycan array binding signal (z-score)", "setting": "[11]", "value": 0.209},
      {"measurement": "glycan array binding signal (z-score)", "setting": "[12]", "value": -0.584},
      {"measurement": "glycan array binding signal (z-score)", "setting": "[13]", "value": -1.19},
      {"measurement": "glycan array binding signal (z-score)", "setting": "[14]", "value": -0.227},
      {"measurement": "glycan array binding signal (z-score)", "setting": "[15]", "value": -0.435},
      {"measurement": "glycan array binding signal (z-score)", "setting": "[16]", "value": 0.428},
      {"measurement": "glycan array binding signal (z-score)", "setting": "[17]", "value": -0.288},
      {"measurement": "glycan array binding signal (z-score)", "setting": "[18]", "value": -0.66},
      {"measurement": "glycan array binding signal (z-score)", "setting": "[19]", "value": -0.225},
      {"measurement": "glycan array binding signal (z-score)", "setting": "[20]", "value": -0.373},
      {"measurement": "glycan array binding signal (z-score)", "setting": "[21]", "value": -0.222},
      {"measurement": "glycan array binding signal (z-score)", "setting": "[22]", "value": 0.068},
      {"measurement": "glycan array binding signal (z-score)", "setting": "[23]", "value": -0.377},
      {"measurement": "glycan array binding signal (z-score)", "setting": "[24]", "value": 0.042}
    ]}
  ]
}
